Measured values from PubChem BioAssay (NCATS).
The source calls these results inconclusive, neither active nor inactive. Unless noted, the call rests on the fitted dose curve; in most records, active means well fitted curve in the direction sought with a large enough effect; inconclusive means small, poorly fitted or top-dose-only effect, or another doubt; inactive means no such curve, though single readings can be large; an effect the other way counts as inactive or inconclusive.

Assays:
[1] = qHTS Screen of the MIPE 4.0 Collection Against Ewings Sarcoma (RDES) (AID 1259252); conditions: RD-ES Ewing sarcoma viability, CellTiter-Glo, 48 h; further: potency means the concentration at half of the fitted maximal effect; nearly all actives have a fitted effect of over 35% in size
Procedure, shortened: (§1)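 Compound titrations go onto adherent log-phase cells 4 h after seeding, incubate 48 h at 37C, then CellTiter-Glo luminescence reports viability relative to DMSO and cell-free controls.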

[2] = qHTS Screen of the MIPE 4.0 Collection Against Ewings Sarcoma (EW8) (AID 1259255); conditions: EW8 Ewing sarcoma viability, CellTiter-Glo, 48 h; further: potency means the concentration at half of the fitted maximal effect; nearly all actives have a fitted effect of over 35% in size
Procedure, shortened: as §1

[3] = qHTS Screen of the MIPE 4.0 Collection Against Ewings Sarcoma (TC32) (AID 1259256); conditions: TC32 Ewing sarcoma viability, CellTiter-Glo, 48 h; further: potency means the concentration at half of the fitted maximal effect; nearly all actives have a fitted effect of over 45% in size
Procedure, shortened: as §1

[4] = qHTS for Inhibitors of the Functional Ribonucleoprotein Complex (vRNP) of Lymphocytic Choriomeningitis Arenaviruses (LCMV): Viability assay - alamar blue signal for LCMV Primary Screen (AID 1347085; calls by dose curve; tested in HEK293 reporter line; further: on the % scale 0 is the no-effect control and ±100 the full control effect; nearly all actives have a fitted effect of over 80% in size); conditions: alamar blue viability counter-screen, LCMV vRNP screen cells; at 57.5 µM (top of the series)
[5] = qHTS of pediatric cancer cell lines to identify multiple opportunities for drug repurposing: Primary screen for A673 cells (AID 1347092); conditions: A673 Ewing sarcoma viability, CellTiter-Glo ATP luminescence, 48 h; further: potency means the concentration at half of the fitted maximal effect; nearly all actives have a fitted effect of over 45% in size
Procedure, shortened: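 A673 cells (500-1,000 cells/well in growth media) were pre-incubated 5 h at 37 degrees C, then exposed to compounds for 48 h. Viability was read as CellTiter-Glo luminescence; concentration-response curves came directly from the primary screen.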

[6] = qHTS of pediatric cancer cell lines to identify multiple opportunities for drug repurposing: Primary screen for NB-EBc1 cells (AID 1347095); conditions: NB-EBc1 neuroblastoma viability, CellTiter-Glo luminescence, 48 h; further: potency means the concentration at half of the fitted maximal effect
[7] = qHTS of pediatric cancer cell lines to identify multiple opportunities for drug repurposing: Primary screen for Saos-2 cells (AID 1347097); conditions: Saos-2 viability, CellTiter-Glo ATP luminescence, 48 h; further: potency means the concentration at half of the fitted maximal effect; nearly all actives have a fitted effect of over 40% in size
Procedure, shortened: (§2)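 CRCs from 8- or 11-point titrations (lowest final 0.59 nM NPC, 0.78 nM MIPE). Cell viability: CellTiter-Glo after 48 h incubation, 15 min room-temperature development, luminescence imaging.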

[8] = qHTS of pediatric cancer cell lines to identify multiple opportunities for drug repurposing: Primary screen for NB1643 cells (AID 1347099); conditions: NB1643 neuroblastoma viability, CellTiter-Glo luminescence, 48 h; further: potency means the concentration at half of the fitted maximal effect; nearly all actives have a fitted effect of over 50% in size
[9] = qHTS of pediatric cancer cell lines to identify multiple opportunities for drug repurposing: Primary screen for RD cells (AID 1347104); conditions: RD rhabdomyosarcoma viability, CellTiter-Glo luminescence, 48 h; further: potency means the concentration at half of the fitted maximal effect; nearly all actives have a fitted effect of over 55% in size
Procedure, shortened: as §2

[10] = qHTS of pediatric cancer cell lines to identify multiple opportunities for drug repurposing: Primary screen for MG 63 (6-TG R) cells (AID 1347105); conditions: MG 63 (6-TG R) viability, CellTiter-Glo, 48 h; at 16.1 µM (top of the series); further: on the % scale 0 is the no-effect control and ±100 the full control effect; nearly all actives have a fitted effect of over 50% in size
Procedure, shortened: as §2

[11] = qHTS of pediatric cancer cell lines to identify multiple opportunities for drug repurposing: Primary screen for Rh30 cells (AID 1347107); conditions: Rh30 rhabdomyosarcoma viability, CellTiter-Glo luminescence, 48 h; further: potency means the concentration at half of the fitted maximal effect; nearly all actives have a fitted effect of over 75% in size
Procedure, shortened: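 Cells (500-1,000/well) in growth media were settled 5 h at 37 degrees C, then given compounds for 48 h. Viability was read as CellTiter-Glo luminescence. Primary runs used MIPE at 11 points (0.78 nM-46 µM) and NPC at 8 points (0.59 nM-46 µM); follow-ups used 11 points.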

[12] = qHTS of pediatric cancer cell lines to identify multiple opportunities for drug repurposing: Primary screen for Rh41 cells (AID 1347108); conditions: Rh41 rhabdomyosarcoma viability, CellTiter-Glo luminescence, 48 h; further: potency means the concentration at half of the fitted maximal effect; nearly all actives have a fitted effect of over 70% in size
Procedure, shortened: as §2

[13] = Primary qHTS for small molecule stabilizers of the endoplasmic reticulum resident proteome: Secreted ER Calcium Modulated Protein (SERCaMP) assay (AID 1508630); conditions: SH-SY5Y GLuc-SERCaMP secretion, thapsigargin, luminescence; further: potency means the concentration at half of the fitted maximal effect
Procedure, shortened: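 The SH-SY5Y reporter protocol was run at 3 concentrations up to 38.3 uM (primary) or 11 concentrations (follow-up): 16 h compound, 100 nM thapsigargin for 4 h, then extracellular luciferase luminescence.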

[14] = Quantitative High-Throughput drug screen in 47 multiple myeloma cell lines against the NCATS MIPE library collection: FR4_PLB cell viability assay (AID 1918924; further: potency means the concentration at half of the fitted maximal effect; nearly all actives have a fitted effect of over 35% in size); conditions: FR4_PLB myeloma cells viability, CellTiter-Glo ATP, 48 h
Procedure, shortened: (§3)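 Relative luminescence from CellTiter-Glo served as the viability signal, referenced to DMSO-treated (100%) and cell-free medium (0%) controls. Treatment lasted 48 hours at 37C with 500 cells per well.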

[15] = Quantitative High-Throughput drug screen in 47 multiple myeloma cell lines against the NCATS MIPE library collection: Delta47_JCRB cell viability assay (AID 1918925; further: potency means the concentration at half of the fitted maximal effect; nearly all actives have a fitted effect of over 45% in size); conditions: Delta47 myeloma viability, CellTiter-Glo ATP, 48 h
Procedure, shortened: (§4)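 Viability readout: CellTiter-Glo luminescence following 5 min room-temperature incubation with reagent. Prior exposure: 48 h, 37C, humidified 5% CO2, 500 cells per well.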

[16] = Quantitative High-Throughput drug screen in 47 multiple myeloma cell lines against the NCATS MIPE library collection: EJM_DSMZ cell viability assay (AID 1918926; further: potency means the concentration at half of the fitted maximal effect; nearly all actives have a fitted effect of over 30% in size); conditions: EJM myeloma cell viability, CellTiter-Glo ATP, 48 h
Procedure, shortened: as §4

[17] = Quantitative High-Throughput drug screen in 47 multiple myeloma cell lines against the NCATS MIPE library collection: Karpas620_DSMZ cell viability assay (AID 1918959); conditions: Karpas620 myeloma viability, CellTiter-Glo ATP luminescence, 48 h; further: potency means the concentration at half of the fitted maximal effect; nearly all actives have a fitted effect of over 30% in size
Procedure, shortened: as §3

[18] = Quantitative High-Throughput drug screen in 47 multiple myeloma cell lines against the NCATS MIPE library collection: KMM1_JCRB cell viability assay (AID 1918960); conditions: KMM1 myeloma viability, CellTiter-Glo ATP luminescence, 48 h; further: potency means the concentration at half of the fitted maximal effect; nearly all actives have a fitted effect of over 30% in size
Procedure, shortened: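 500 cells/well; MIPE 4.0 library pinned in; 48 h, 37 °C, 5% CO2; CellTiter-Glo ATP luminescence. Controls: DMSO = 100% viability, medium only = 0%.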

[19] = Quantitative High-Throughput drug screen in 47 multiple myeloma cell lines against the NCATS MIPE library collection: KHM11_PLB cell viability assay (AID 1918962); conditions: KHM11 myeloma cell viability, CellTiter-Glo ATP luminescence, 48 h; further: potency means the concentration at half of the fitted maximal effect; nearly all actives have a fitted effect of over 35% in size
Procedure, shortened: as §3

[20] = Quantitative High-Throughput drug screen in 47 multiple myeloma cell lines against the NCATS MIPE library collection: JIM1_ECACC cell viability assay (AID 1918964; further: potency means the concentration at half of the fitted maximal effect); conditions: JIM1 myeloma viability, CellTiter-Glo ATP luminescence, 48 h
Procedure, shortened: as §4

[21] = Quantitative High-Throughput drug screen in 47 multiple myeloma cell lines against the NCATS MIPE library collection: INA6_PLB cell viability assay (AID 1918965; further: potency means the concentration at half of the fitted maximal effect; nearly all actives have a fitted effect of over 55% in size); conditions: INA6 myeloma viability, CellTiter-Glo ATP luminescence, 48 h
Procedure, shortened: as §3

[22] = Quantitative High-Throughput drug screen in 47 multiple myeloma cell lines against the NCATS MIPE library collection: JJN3_DSMZ cell viability assay (AID 1918966; further: potency means the concentration at half of the fitted maximal effect; nearly all actives have a fitted effect of over 50% in size); conditions: JJN3 myeloma cells viability, CellTiter-Glo ATP, 48 h
Procedure, shortened: as §4

[23] = Quantitative High-Throughput drug screen in 47 multiple myeloma cell lines against the NCATS MIPE library collection: KMS27_JCRB cell viability assay (AID 1918970); conditions: KMS27 myeloma cells, CellTiter-Glo ATP viability, 48 h; further: potency means the concentration at half of the fitted maximal effect; nearly all actives have a fitted effect of over 30% in size
Procedure, shortened: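 Myeloma cells (500 per well) were exposed to MIPE 4.0 compounds for 48 h at 37 °C, 5% CO2; viability was read as ATP luminescence with CellTiter-Glo, normalized to DMSO-only (100%) and media-only (0%) wells.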

[24] = Quantitative High-Throughput drug screen in 47 multiple myeloma cell lines against the NCATS MIPE library collection: KMS20_JCRB cell viability assay (AID 1918973); conditions: CellTiter-Glo ATP, 48 h; further: potency means the concentration at half of the fitted maximal effect; nearly all actives have a fitted effect of over 45% in size
Procedure, shortened: as §4

[25] = Quantitative High-Throughput drug screen in 47 multiple myeloma cell lines against the NCATS MIPE library collection: MOLP8_DSMZ cell viability assay (AID 1918977); conditions: MOLP8 myeloma viability, CellTiter-Glo ATP luminescence, 48 h
Procedure, shortened: (§5)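 Readout: median RLU from CellTiter-Glo after 5 min at room temperature. Preceding step was 48 h drug treatment of 500 cells/well at 37 °C, 5% CO2, with DMSO-only and media-only control wells.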

[26] = Quantitative High-Throughput drug screen in 47 multiple myeloma cell lines against the NCATS MIPE library collection: MM1S_ATCC cell viability assay (AID 1918980); conditions: MM1S myeloma viability, CellTiter-Glo ATP luminescence, 48 h
Procedure, shortened: as §5

[27] = Quantitative High-Throughput drug screen in 47 multiple myeloma cell lines against the NCATS MIPE library collection: MM1R_ATCC cell viability assay (AID 1918981); conditions: MM1R multiple myeloma cells, CellTiter-Glo viability, 48 h
Procedure, shortened: as §5

[28] = Quantitative High-Throughput drug screen in 47 multiple myeloma cell lines against the NCATS MIPE library collection: LP1_DSMZ cell viability assay (AID 1918982); conditions: LP1 myeloma viability, CellTiter-Glo ATP luminescence, 48 h
Procedure, shortened: as §5

[29] = Quantitative High-Throughput drug screen in 47 multiple myeloma cell lines against the NCATS MIPE library collection: KMS34_JCRB cell viability assay (AID 1918985); conditions: KMS34 myeloma viability, CellTiter-Glo ATP luminescence, 48 h; further: potency means the concentration at half of the fitted maximal effect; nearly all actives have a fitted effect of over 40% in size
Procedure, shortened: as §5

[30] = Quantitative High-Throughput drug screen in 47 multiple myeloma cell lines against the NCATS MIPE library collection: OCIMY7_PLB cell viability assay (AID 1918987); conditions: OCI-MY7 myeloma viability, CellTiter-Glo ATP, 48 h; further: potency means the concentration at half of the fitted maximal effect; nearly all actives have a fitted effect of over 65% in size
Procedure, shortened: as §5

[31] = Quantitative High-Throughput drug screen in 47 multiple myeloma cell lines against the NCATS MIPE library collection: OCIMY5_PLB cell viability assay (AID 1918988); conditions: OCI-MY5 myeloma viability, ATP luminescence, 48 h; further: potency means the concentration at half of the fitted maximal effect; nearly all actives have a fitted effect of over 65% in size
Procedure, shortened: as §5

[32] = Quantitative High-Throughput drug screen in 47 multiple myeloma cell lines against the NCATS MIPE library collection: XG1_PLB cell viability assay (AID 1919866); conditions: CellTiter-Glo ATP, 48 h
Procedure, shortened: as §5

[33] = Quantitative High-Throughput drug screen in 47 multiple myeloma cell lines against the NCATS MIPE library collection: UTMC2_PLB cell viability assay (AID 1919868); conditions: CellTiter-Glo ATP luminescence, 48 h; further: potency means the concentration at half of the fitted maximal effect; nearly all actives have a fitted effect of over 55% in size
Procedure, shortened: as §5

[34] = Quantitative High-Throughput drug screen in 47 multiple myeloma cell lines against the NCATS MIPE library collection: PE2_PLB cell viability assay (AID 1919869); conditions: PE2_PLB myeloma cells viability, ATP luminescence, 48 h
Procedure, shortened: as §5

[35] = Quantitative High-Throughput drug screen in 47 multiple myeloma cell lines against the NCATS MIPE library collection: PCM6_Riken cell viability assay (AID 1919870); conditions: CellTiter-Glo ATP, 48 h
Procedure, shortened: as §5

[36] = Quantitative High-Throughput drug screen in 47 multiple myeloma cell lines against the NCATS MIPE library collection: OPM2_DSMZ cell viability assay (AID 1919872); conditions: OPM2 myeloma viability, CellTiter-Glo ATP luminescence, 48 h
Procedure, shortened: as §4

[37] = Quantitative High-Throughput drug screen in 47 multiple myeloma cell lines against the NCATS MIPE library collection: KMS11_JCRBsus cell viability assay (AID 1919873); conditions: KMS11 myeloma viability, CellTiter-Glo ATP luminescence, 48 h; further: potency means the concentration at half of the fitted maximal effect; nearly all actives have a fitted effect of over 50% in size
Procedure, shortened: as §5

[38] = Quantitative High-Throughput drug screen in 47 multiple myeloma cell lines against the NCATS MIPE library collection: KMS28BM_JCRB cell viability assay (AID 1919874); conditions: CellTiter-Glo ATP, 48 h
Procedure, shortened: as §5

[39] = qHTS for identification of novel therapeutic agents for treatment of microphthalmiaassociated transcription factor (MiT) renal cell carcinoma (RCC) (AID 1963991; calls by dose curve; further: potency means the concentration at half of the fitted maximal effect); conditions: TFE3-RCC UOK109 viability, CellTiter-Glo, 48 h; active = Z-AUC below -0.8 in all three lines
Procedure, shortened: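 UOK109/UOK124/UOK145 (TFE3 fusions, three partners); 500 cells/well; MIPE v4.0, 1912 cpds, 11 conc.; 48 h, 37 C; CellTiter-Glo, 15 min RT; lum. Norm.: DMSO 100%, empty 0%.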

CC1=C2[N-][C@@](C)([C@@H]3N=C(C(C)=C4N=C(C=C5N=C1[C@@](C)(CC(N)=O)[C@H]5CCC(N)=O)C(C)(C)[C@H]4CCC(N)=O)[C@](C)(CCC(=O)NC[C@@H](C)OP(=O)([O-])O[C@H]1[C@@H](O)[C@@H](n4cnc5cc(C)c(C)cc54)O[C@H]1CO)[C@H]3CC(N)=O)[C@@](C)(CC(N)=O)[C@@H]2CCC(N)=O.[C-]#N.[Co+3]
inconclusive: Potency [1] 11.5 µM | Potency [2] 18.2 µM | Potency [3] 10.2 µM | activity change, negative = lower viability [4] -40.4% | Potency [5] 8.12 µM | Potency [6] 5.12 µM | Potency [7] 9.11 µM | Potency [8] 11.5 µM | Potency [9] 9.11 µM | activity change, negative = cytotoxic [10] -39% | Potency [11] 8.12 µM | Potency [12] 9.11 µM | Potency [13] 2.06 µM | Potency [14] 12.9 µM | Potency [15] 3.63 µM | Potency [16] 14.4 µM | Potency [17] 0.0072 µM | Potency [18] 0.575 µM | Potency [19] 11.5 µM | Potency [20] 0.0457 µM | Potency [21] 8.12 µM | Potency [22] 1.82 µM | Potency [23] 1.62 µM | Potency [24] 0.363 µM | Potency [25] 5.75 µM | Potency [26] 6.45 µM | Potency [27] 0.162 µM | Potency [28] 8.12 µM | Potency [29] 16.2 µM | Potency [30] 18.2 µM | Potency [31] 0.0204 µM | Potency [32] 16.2 µM | Potency [33] 18.2 µM | Potency [34] 12.9 µM | Potency [35] 8.12 µM | Potency [36] 7.24 µM | Potency [37] 7.24 µM | Potency [38] 9.11 µM | Potency [39] 1.82 µM
